The values that follow come from patent US20260250402A1 (C O INMAGENE PTE, published 2026).

Assay [1] has as its target T1, Human his-tag IL-7Ra protein (human, UniProt P16871 21-239).
T1 construct: Construct not described; Position of the tag unknown; also called IL-7Ra (Biacore analyte); not shown: his tag
T1 sequence: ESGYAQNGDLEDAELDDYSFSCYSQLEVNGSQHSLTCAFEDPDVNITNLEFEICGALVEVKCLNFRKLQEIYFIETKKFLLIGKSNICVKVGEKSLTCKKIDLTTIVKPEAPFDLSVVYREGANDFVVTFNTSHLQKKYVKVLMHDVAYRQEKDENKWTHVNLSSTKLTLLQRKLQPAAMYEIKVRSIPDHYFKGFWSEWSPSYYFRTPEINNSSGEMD
Kind of assay: SPR Biacore 8K, antibody Fc-captured, human his-tag IL-7Ra analyte.

In assay [2] the target is human IL-7Ra expressed on CHOK1-human IL-7Ra cells (human) (UniProt P16871). Put plainly: flow cytometry blocking assay: binding of hIL-7-his to CHOK1-human IL-7Ra cells in the presence of the antibody, MFI (right panel).
For assay [3], the target named is T2, cynomolgus Fc-tag IL-7Ra protein (cynomolgus, UniProt Q38IC7 21-240).
T2 construct: also called cynomolgus IL-7Ra protein; not shown: Fc tag
T2 sequence: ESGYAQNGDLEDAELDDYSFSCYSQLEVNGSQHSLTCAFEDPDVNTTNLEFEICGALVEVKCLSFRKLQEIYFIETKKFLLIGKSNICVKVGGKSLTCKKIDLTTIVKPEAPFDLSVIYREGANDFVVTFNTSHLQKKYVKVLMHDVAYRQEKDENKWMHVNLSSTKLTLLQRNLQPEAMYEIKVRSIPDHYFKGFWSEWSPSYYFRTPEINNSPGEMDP
Kind of assay: ELISA, cynomolgus Fc-tag IL-7Ra protein, HRP-labelled secondary antibody, OD 450 (right panel). (In general: ELISA stands for enzyme-linked immunosorbent assay.)

The target in assay [4] is human IL-7Ra expressed on CHOK1-human IL-7Ra cells (human) (UniProt P16871). Kind of assay: flow cytometry blocking assay: binding of hIL-7-his to CHOK1-human IL-7Ra cells in the presence of the antibody, MFI (left panel). In general terms: A flow cytometer gives signals particle by particle.
In assay [5] the target is cynomolgus IL-7Ra expressed on CHOK1-cyno IL-7Ra cells (cynomolgus) (UniProt Q38IC7). Put plainly: flow cytometry on CHOK1-cyno IL-7Ra cells, MFI (upper right panel).
For assay [6], the target named is T3, human Fc-tag IL-7Ra protein (human, UniProt P16871 21-239).
T3 construct: also called human IL-7Ra protein; not shown: Fc tag fused to the N-terminus
T3 sequence: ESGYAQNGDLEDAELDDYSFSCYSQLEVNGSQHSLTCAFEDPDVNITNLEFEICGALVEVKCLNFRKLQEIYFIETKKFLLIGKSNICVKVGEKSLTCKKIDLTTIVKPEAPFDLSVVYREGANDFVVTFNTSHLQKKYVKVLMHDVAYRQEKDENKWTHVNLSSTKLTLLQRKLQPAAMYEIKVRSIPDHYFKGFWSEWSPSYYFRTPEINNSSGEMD
Kind of assay: ELISA, plate-coated Fc-tag IL-7Ra protein.

In assay [7] the target is T2, cynomolgus Fc-tag IL-7Ra protein. Put plainly: ELISA, plate-coated Fc-tag IL-7Ra protein.
Assay [8] concerns the target cynomolgus IL-7Ra expressed on CHOK1-cyno IL-7Ra cells (cynomolgus) (UniProt Q38IC7). Kind of assay: flow cytometry, CHOK1-cyno IL-7Ra cells.
Assay [9] concerns the target human IL-7Ra expressed on CHOK1-human IL-7Ra cells (human) (UniProt P16871). Put plainly: flow cytometry blocking assay: binding of hIL-7-his (0.1 ug/ml) to CHOK1-human IL-7Ra cells in the presence of the antibody, anti-His Alexa Fluor 488, MFI (left panel).
Assay [10] shares this target. Put plainly: flow cytometry on CHOK1-human IL-7Ra cells, MFI (upper left panel).
For assay [11] the target is unchanged. Kind of assay: flow cytometry, CHOK1-human IL-7Ra cells.
Assay [12] addresses T3, human Fc-tag IL-7Ra protein. Kind of assay: ELISA, plate coated with human Fc-tag IL-7Ra protein, HRP-labelled secondary antibody, OD 450 (left panel).

No constants are given. Whether binding was seen depends on the method and setting. Some results given as binding are weak or reduced against the parent protein; the word gives no strength. For some of these results: Where a sequence is shown, tags or fusion partners need not be part of it.

B1: HuAb003 (antibody, V domains shown)
VH: QVQLVQSGAEVKKPGASVKVSCKASGYRFTDYELHWVRQAPGQGLEWMGGIDPKTGGTAYNQKFKGRVTMTRDTSTSTVYMELSSLRSEDTAVYYCARSGGRWYFDVWGQGTTVTVSS
VL: DIVMTQSPDSLAVSLGERATINCRTSESVSIHLLHLMHWYQQKPGQPPKLLIYGASNLESGVPDRFSGSGSGTDFTLTISSLQAEDVAVYYCQQSIKDPYTFGGGTKVEIK
notes: Humanized version of cmAb011; also called humanized VL3 / humanized VH1
On to B1, for which, in assay [1], the binding result is on record as “binds”.

B2: HuAb005 (antibody, V domains shown)
VH: QVQLVQSGAEVKKPGASVKVSCKASGYRFTDYELHWVRQAPGQGLEWMGGIDPKTGGTAYNQKFKGRVTMTSDRSTSTVYMELSSLRSEDTAVYYCARSGGRWYFDVWGQGTTVTVSS
VL: DIVLTQSPASLAVSPGQRATITCRTSESVSIHLLHLMHWYQQKPGQPPKLLIYGASNLESGVPARFSGSGSGTDFTLTINPVEAEDTANYYCQQSIKDPYTFGGGTKVEIK
notes: Humanized version of cmAb011; also called humanized VL1 / humanized VH2
B2: the binding result in assay [1] is given as “binds”.

B3: HuAb004 (antibody, V domains shown)
VH: QVQLVQSGAEVKKPGASVKVSCKASGYRFTDYELHWVRQAPGQGLEWMGGIDPKTGGTAYNQKFKGRVTMTRDTSTSTVYMELSSLRSEDTAVYYCARSGGRWYFDVWGQGTTVTVSS
VL: DIVLTQSPDSLAVSLGERATINCRTSESVSIHLLHLMHWYQQKPGQPPKLLIYGASNLESGVPDRFSGSGSETDFTLTISSLQAEDVAVYYCQQSIKDPYTFGGGTKVEIK
notes: Humanized version of cmAb011; also called humanized VL4 / humanized VH1
For the molecule B3, the binding result in assay [1] was “binds”.

B4: HuAb013 (antibody, V domains shown)
VH: QVQLVQSGAEVKKPGASVKVSCKASGYRFTDYELHWVRQAPGQGLEWMGGIDPKTGGTAYNQKFKGKVTLTSDRSTSTVYMELSSLRSEDTAVYYCARSGGRWYFDVWGQGTTVTVSS
VL: DIVLTQSPASLAVSPGQRATITCRTSESVSIHLLHLMHWYQQKPGQPPKLLIYGASNLESGVPARFSGSGSGTDFTLTINPVEAEDTANYYCQQSIKDPYTFGGGTKVEIK
notes: Humanized version of cmAb011; also called humanized VL1 / humanized VH4
For the molecule B4, the binding result in assay [1] is listed as “binds”.

B5: HuAb008 (antibody, V domains shown)
VH: QVQLVQSGAEVKKPGASVKVSCKASGYRFTDYELHWVRQAPGQGLEWMGGIDPKTGGTAYNQKFKGRVTMTSDRSTSTVYMELSSLRSEDTAVYYCARSGGRWYFDVWGQGTTVTVSS
VL: DIVLTQSPDSLAVSLGERATINCRTSESVSIHLLHLMHWYQQKPGQPPKLLIYGASNLESGVPDRFSGSGSETDFTLTISSLQAEDVAVYYCQQSIKDPYTFGGGTKVEIK
notes: Humanized version of cmAb011; also called humanized VL4 / humanized VH2
B5: the binding result in assay [1] was “binds”.

B6: HuAb009 (antibody, V domains shown)
VH: QVQLVQSGAEVKKPGASVKVSCKASGYRFTDYELHWVKQAPGQGLEWIGGIDPKTGGTAYNQKFKGRVTMTSDRSTSTVYMELSSLRSEDTAVYYCARSGGRWYFDVWGQGTTVTVSS
VL: DIVLTQSPASLAVSPGQRATITCRTSESVSIHLLHLMHWYQQKPGQPPKLLIYGASNLESGVPARFSGSGSGTDFTLTINPVEAEDTANYYCQQSIKDPYTFGGGTKVEIK
notes: Humanized version of cmAb011; also called humanized VL1 / humanized VH3
As for B6, the binding entry in assay [1] is “binds”.

B7: cmAb011 (chimeric Ab011) (antibody, V domains shown)
VH: QVQLQQSGAELMRPGASVTLSCKTSGYRFTDYELHWVKQTPVRGLEWIGGIDPKTGGTAYNQKFKGKAILTSDRSSSTTYMELRSLASEDSAVYYCTRSGGRWYFDVWGTGTTVTVSS
VL: DIVLTQSPASLAVSLGQRATISCRTSESVSIHLLHLMHWYQQKPGQPPKLLIYGASNLESGVPARFSGSGSETDFTLNIHPVEEEDAATYFCQQSIKDPYTFGGGTKLEIKR
notes: also called chimeric antibody Ab011
With B7, the binding entry in [2], in [3], in assay [4], in assay [1], in assay [5] and in [6] was “binds” each time. Further, the binding result in assay [7], in assay [8], in assay [9], in assay [10], in assay [11] and in [12] was “binds” throughout.

B8: ADX-914 (Tab1) (antibody, human IgG1, kappa, V domains shown)
VH: EVQLVESGGGLVQPGRSLRLSCAASGFTFDDHAMHWVRQAPGKGLEWVSGISWNSRGIGYADSVKGRFTIFRDNAKNSLYLQMNSLRAEDTALYYCAKDEYSRGYYVLDVWGQGTTVTVSS
VL: AIQLTQSPSSLSASVGDRVTITCRASQGISSALAWYQQKPGKAPKLLIYDASSLESGVPSRFSGSGSGTDFTLTISSLQPEDFATYYCQQFNSYPLWITFGQGTRLEIKR
notes: also called benchmark antibody ADX-914
Turning to B8, the binding result in assay [3], in [1], in [6], in assay [7] and in assay [12] was “binds” throughout.

B9: OSE127 (Tab2) (antibody, human IgG4 S228P, kappa, V domains shown)
VH: QVQLVESGGGLVKPGGSLRLSCAVSGFTLSDYYMAWIRQAPGKGLEWVSTISASGLRTYYPDSVKGRFTISRDNAKNSLYLQMNSLRAEDTAVYYCARPLSAHYGFNYFDYWGQGTLVTVSS
VL: DIQMTQSPSSLSASVGDRVTITCRTSEDIYQGLAWYQQKPGKAPKLLLYSANTLHIGVPSRFSGSGSGTDYTLTISSLQPEDFATYYCQQYYDYPLAFGGGTKVEIKR
notes: also called benchmark antibody OSE127
As to B9, the binding result in assay [3] and in [7] was “binds” each time.
